Laboratory results reported in article doi:10.1101/2024.09.05.611528.
Results are given in words; binding and its absence hold for the method and conditions named. In cells and extracts the contact can be indirect. Binding can be weak; no strength is given.

Amino acid sequences for entries named in this document (tags omitted). A change or cut given only in a name is not applied to a line headed by its entry.
UniProt Q4ZGE4: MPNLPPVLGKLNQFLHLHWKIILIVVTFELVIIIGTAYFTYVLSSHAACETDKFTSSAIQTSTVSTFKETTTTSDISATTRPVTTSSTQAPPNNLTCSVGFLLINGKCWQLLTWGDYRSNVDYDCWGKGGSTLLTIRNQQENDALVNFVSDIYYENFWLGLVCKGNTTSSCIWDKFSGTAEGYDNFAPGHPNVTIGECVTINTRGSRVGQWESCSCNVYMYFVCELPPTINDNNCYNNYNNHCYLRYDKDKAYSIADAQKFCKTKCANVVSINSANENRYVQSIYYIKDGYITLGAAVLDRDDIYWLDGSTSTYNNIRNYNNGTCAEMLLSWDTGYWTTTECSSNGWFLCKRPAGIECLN
UniProt Q9XUN6: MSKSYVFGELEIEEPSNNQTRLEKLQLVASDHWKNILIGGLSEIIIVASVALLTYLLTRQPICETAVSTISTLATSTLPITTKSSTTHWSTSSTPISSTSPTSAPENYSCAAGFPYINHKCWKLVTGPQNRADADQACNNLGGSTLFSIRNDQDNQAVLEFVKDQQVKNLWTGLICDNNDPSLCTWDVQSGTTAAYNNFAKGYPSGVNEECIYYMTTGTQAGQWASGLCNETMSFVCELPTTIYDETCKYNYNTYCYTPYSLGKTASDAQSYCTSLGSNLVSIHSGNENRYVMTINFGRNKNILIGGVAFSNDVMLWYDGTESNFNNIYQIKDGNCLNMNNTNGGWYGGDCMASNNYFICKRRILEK

Molecular target: CLEC-36 (C. elegans) (UniProt Q4ZGE4)
Experiment: co-IP

binding: binds
Substance: CLEC-26 (from UniProt Q9XUN6) (receptor)
